From publication PMC10725499 come the findings set out here.

The chains behind the UniProt entries cited, without tags or fusion partners.
UniProt Q9NYV4: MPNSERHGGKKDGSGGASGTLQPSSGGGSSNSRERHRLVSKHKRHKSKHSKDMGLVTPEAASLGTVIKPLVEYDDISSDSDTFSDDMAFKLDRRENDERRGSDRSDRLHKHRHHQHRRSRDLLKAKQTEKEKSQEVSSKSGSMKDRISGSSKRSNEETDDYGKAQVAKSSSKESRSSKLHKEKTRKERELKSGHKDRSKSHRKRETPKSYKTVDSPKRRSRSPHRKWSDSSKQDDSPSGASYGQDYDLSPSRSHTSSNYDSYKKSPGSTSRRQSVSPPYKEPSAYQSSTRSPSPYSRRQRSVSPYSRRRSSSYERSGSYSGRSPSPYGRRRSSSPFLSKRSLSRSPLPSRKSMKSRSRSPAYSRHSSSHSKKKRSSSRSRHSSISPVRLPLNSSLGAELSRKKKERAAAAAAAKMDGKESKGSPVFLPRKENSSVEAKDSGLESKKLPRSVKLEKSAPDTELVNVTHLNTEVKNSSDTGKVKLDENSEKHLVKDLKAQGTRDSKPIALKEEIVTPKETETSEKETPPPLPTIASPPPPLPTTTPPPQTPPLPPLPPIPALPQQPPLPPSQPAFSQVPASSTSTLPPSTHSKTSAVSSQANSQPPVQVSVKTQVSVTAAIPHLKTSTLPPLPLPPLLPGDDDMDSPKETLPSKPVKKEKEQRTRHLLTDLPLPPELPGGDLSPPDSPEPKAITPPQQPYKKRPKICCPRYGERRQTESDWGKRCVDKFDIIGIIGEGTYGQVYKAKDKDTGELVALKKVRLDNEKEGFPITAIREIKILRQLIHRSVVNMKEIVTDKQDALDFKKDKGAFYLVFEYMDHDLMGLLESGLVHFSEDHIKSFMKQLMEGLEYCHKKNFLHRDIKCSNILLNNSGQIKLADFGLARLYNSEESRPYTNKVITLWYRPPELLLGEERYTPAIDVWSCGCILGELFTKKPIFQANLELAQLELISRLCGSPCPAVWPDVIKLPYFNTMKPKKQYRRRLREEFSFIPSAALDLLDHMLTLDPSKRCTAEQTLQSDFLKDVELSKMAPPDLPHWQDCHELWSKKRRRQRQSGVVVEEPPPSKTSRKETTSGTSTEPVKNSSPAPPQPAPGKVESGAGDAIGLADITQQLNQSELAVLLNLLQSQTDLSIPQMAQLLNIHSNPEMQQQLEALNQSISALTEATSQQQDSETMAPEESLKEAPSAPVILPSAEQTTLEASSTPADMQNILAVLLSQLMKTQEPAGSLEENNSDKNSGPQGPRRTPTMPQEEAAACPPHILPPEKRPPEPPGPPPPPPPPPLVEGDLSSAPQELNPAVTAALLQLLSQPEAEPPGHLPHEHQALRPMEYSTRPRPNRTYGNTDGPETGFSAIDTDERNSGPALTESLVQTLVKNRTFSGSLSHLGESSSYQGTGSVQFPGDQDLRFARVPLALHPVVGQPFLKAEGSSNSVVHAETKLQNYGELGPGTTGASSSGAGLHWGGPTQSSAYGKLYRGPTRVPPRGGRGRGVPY
UniProt Q16531: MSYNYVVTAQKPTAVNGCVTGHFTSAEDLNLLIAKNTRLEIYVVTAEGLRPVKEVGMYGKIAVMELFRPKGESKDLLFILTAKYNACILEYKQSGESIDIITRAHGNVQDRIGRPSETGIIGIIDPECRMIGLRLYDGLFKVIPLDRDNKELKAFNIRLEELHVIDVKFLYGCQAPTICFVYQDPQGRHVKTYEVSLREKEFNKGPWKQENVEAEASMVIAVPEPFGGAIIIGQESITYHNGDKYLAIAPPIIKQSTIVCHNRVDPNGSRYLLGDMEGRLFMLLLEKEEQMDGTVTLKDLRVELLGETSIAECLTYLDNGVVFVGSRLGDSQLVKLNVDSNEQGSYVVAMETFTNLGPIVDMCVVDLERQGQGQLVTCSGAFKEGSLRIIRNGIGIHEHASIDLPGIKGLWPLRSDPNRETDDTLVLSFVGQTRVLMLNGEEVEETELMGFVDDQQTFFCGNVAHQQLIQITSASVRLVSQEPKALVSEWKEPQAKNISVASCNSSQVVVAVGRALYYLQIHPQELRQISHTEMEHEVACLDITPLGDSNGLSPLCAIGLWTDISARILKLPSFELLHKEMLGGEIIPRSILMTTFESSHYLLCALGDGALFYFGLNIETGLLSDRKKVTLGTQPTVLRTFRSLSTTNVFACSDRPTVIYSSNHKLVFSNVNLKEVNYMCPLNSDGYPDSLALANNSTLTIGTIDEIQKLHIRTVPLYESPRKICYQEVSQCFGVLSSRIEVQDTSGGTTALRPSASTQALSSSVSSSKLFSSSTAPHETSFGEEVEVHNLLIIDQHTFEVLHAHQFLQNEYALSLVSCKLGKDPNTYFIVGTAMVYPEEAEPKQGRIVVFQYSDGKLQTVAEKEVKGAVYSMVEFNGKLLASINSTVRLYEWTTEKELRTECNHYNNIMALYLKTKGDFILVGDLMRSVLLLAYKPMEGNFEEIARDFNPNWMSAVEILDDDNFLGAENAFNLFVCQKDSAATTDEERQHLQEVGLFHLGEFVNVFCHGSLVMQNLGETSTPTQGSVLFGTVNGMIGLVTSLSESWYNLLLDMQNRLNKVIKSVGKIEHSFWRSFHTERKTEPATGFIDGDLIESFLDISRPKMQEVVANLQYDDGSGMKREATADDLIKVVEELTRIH

This experiment has as its target 6Myc-tagged CDK12 (human) (UniProt Q9NYV4). Kind of experiment: co-IP; HEK293 cells co-transfected with Myc-CDK12, HA-cyclin K and Flag-DDB1; untreated or treated for indicated times with SR-4835 (1 µM) or THZ531 (1 µM); lysed in BLB buffer; Myc-CDK12 immunoprecipitated (antibody 2 h, protein A-Sepharose CL-4B 1 h), washed three times in lysis buffer ….

Results are given in words; binding and its absence hold for the method and conditions named. Binding seen in cells or lysates may run through a third protein. Some results given as binding are weak or reduced against the parent protein; the word gives no strength.

For the substance “Flag-tagged DDB1 (from UniProt Q16531 1-1140)”, the binding result is on record as “binds”.
